Laboratory results published in publication PMC7819943, “Rice protein-binding microarrays: a tool to detect cis-acting elements near promoter regions in rice”.
The list shows a part of the results.

These sequences were tested against T1, OsSMF1 (Oryza sativa, UniProt Q6ZLB0 1-436) (assay: protein-binding microarray (RPBM); PBS, 2% BSA, 51.3 ng/ul salmon testes DNA, 50 uM zinc acetate, 200 nM TF, 25 C, 1 h; high values mean tight binding). Details: protein: recombinant; tags: N-terminal polyhistidine and DsRed monomer fusion (pET32a); chain copies: 2; label: CyDye5-dUTP incorporated in the synthesized complementary strand; 3' TTTTT single-stranded linker to array surface; dsDNA, one strand shown.
T1 sequence: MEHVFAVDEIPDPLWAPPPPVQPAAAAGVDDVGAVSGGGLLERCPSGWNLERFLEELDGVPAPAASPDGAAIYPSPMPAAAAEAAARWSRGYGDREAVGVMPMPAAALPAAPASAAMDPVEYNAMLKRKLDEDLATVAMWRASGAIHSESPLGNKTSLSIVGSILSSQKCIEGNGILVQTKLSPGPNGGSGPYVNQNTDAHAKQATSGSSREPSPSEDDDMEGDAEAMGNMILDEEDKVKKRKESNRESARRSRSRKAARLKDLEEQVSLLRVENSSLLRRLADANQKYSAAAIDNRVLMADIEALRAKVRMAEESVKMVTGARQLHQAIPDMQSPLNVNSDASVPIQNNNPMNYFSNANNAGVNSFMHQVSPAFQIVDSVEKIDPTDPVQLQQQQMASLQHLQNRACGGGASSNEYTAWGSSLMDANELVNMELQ
Procedure, shortened: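 Using Ni–NTA, transcription factors fused N-terminally to polyhistidine and DsRed were purified after expression in E. coli BL21-CodonPlus. These were incubated at 200 nM with a blocked, double-stranded custom Agilent array for 1 h at 25 °C in a buffer containing 50 µM zinc acetate, and the array was washed. The binding signal is per-feature fluorescence intensity (arbitrary units) on an Axon 4000B scanner.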
“ATGCATGGTATGTCACGTTGTGACTTGCCTACACTAAAGCCGGAGTCACCTAGTGCAG” was tested, and the binding signal was 4520 fluorescence intensity (a.u.). “TTGGAAAGCTTCACTTTAGCATCTTACGCTGGACAGCATCCGGAGTCACCTAGTGCAG” was tested, and the binding signal was 3190 fluorescence intensity (a.u.). “TCAAATGACGTATGCATTTCCCGTTGGGTATAGGGACCACCGGAGTCACCTAGTGCAG” was tested, and the binding signal was 8330 fluorescence intensity (a.u.). With “AATGCCAAATATACAAACCAATCATATCCACACACACACACGGAGTCACCTAGTGCAG” the binding signal was 3280 fluorescence intensity (a.u.). In the case of “ATCGTGATGCAAATGTCGAACTTGGAAGATATCCATGGATCGGAGTCACCTAGTGCAG”, the binding signal was 39000 fluorescence intensity (a.u.). “GCCGTCTCCAAGCGAAATACTCCTACTCCGTCGACTTATCCGGAGTCACCTAGTGCAG” was tested, and the binding signal was 30100 fluorescence intensity (a.u.). For “AGACACCACCTACCGCGCGCGTCGCGTACTCGCGTGCCCACGGAGTCACCTAGTGCAG”, the binding signal was 4240 fluorescence intensity (a.u.). “GAGGCGGCCGTGGACCGCCAAGGACGCAAGGTGGCGAGGCCGGAGTCACCTAGTGCAG” was tested, and the binding signal was 16900 fluorescence intensity (a.u.). In the case of “CGCCGTCATCCTTCTTTCCACGCCATCGCCGTCGCCGATTCGGAGTCACCTAGTGCAG”, the binding signal was 4340 fluorescence intensity (a.u.). For “GTCTTTCTTCAATTGTTATTATTGTCATAAATCAGGAGAACGGAGTCACCTAGTGCAG”, the binding signal was 22600 fluorescence intensity (a.u.). With “GATGTTTCTGCTGCTGCAGTCATTGGCATCCAGTGCTTTCCGGAGTCACCTAGTGCAG” the binding signal was 3180 fluorescence intensity (a.u.). In the case of “GCGGCGCCGGTGATGAGGGCCTAGCGTCAGCTGCGGGGCGCGGAGTCACCTAGTGCAG”, the binding signal was 3470 fluorescence intensity (a.u.). For “CATGCGTTGTCGCCGCGCCGCGTCAGGCGAGCCACGGCTCCGGAGTCACCTAGTGCAG”, the binding signal was 6420 fluorescence intensity (a.u.). For “AAATGTCTCCCAAAACCTCAAAATTGAGTTCCATTATGAACGGAGTCACCTAGTGCAG”, the binding signal was 61600 fluorescence intensity (a.u.). For “AATAAATAGGCCTGACGTGAGGCCCACTCGCCACGTCAGCCGGAGTCACCTAGTGCAG”, the binding signal was 44900 fluorescence intensity (a.u.). In the case of “CTTTTCACGGATCCTAATTTTGACAGGCAAAGAAAGAAAGCGGAGTCACCTAGTGCAG”, the binding signal was 41700 fluorescence intensity (a.u.). In the case of “GTGGCTCTACCGGTGTTGGAGGAGGGAATAAGTTCACCTGCGGAGTCACCTAGTGCAG”, the binding signal was 3720 fluorescence intensity (a.u.). For “CTCTCCCATCGTGACTACTTTTGTCTGGATATTGTTTGCGCGGAGTCACCTAGTGCAG”, the binding signal was 3530 fluorescence intensity (a.u.). “ATTTCTTAAATATGTAATTTTGTGATAGATTGTGCAAAATCGGAGTCACCTAGTGCAG” was tested, and the binding signal was 11600 fluorescence intensity (a.u.). For “GGACACCCACGTCCACATCGGCGACCGCCGCCCCAACGCCCGGAGTCACCTAGTGCAG”, the binding signal was 3790 fluorescence intensity (a.u.). With “TAGACCCACCATTAGTCACACACTCTCCACTCCCCAATTTCGGAGTCACCTAGTGCAG” the binding signal was 4160 fluorescence intensity (a.u.). For “CCTCGCCTCCACGACCGGTCGCCGCCTCGTCCGCGACCGCCGGAGTCACCTAGTGCAG”, the binding signal was 3720 fluorescence intensity (a.u.). With “TCATGACACTAACCATATTATAGCAATTTGTTACGTACTCCGGAGTCACCTAGTGCAG” the binding signal was 3480 fluorescence intensity (a.u.). With “GGCTTCACCGTGGCGTGGGGCACCAACCATGTCGTCGTGGCGGAGTCACCTAGTGCAG” the binding signal was 3170 fluorescence intensity (a.u.). “CCCGCCCGCTGCTGACGTGAGGGCCCCACTCCACTTGTCACGGAGTCACCTAGTGCAG” was tested, and the binding signal was 7100 fluorescence intensity (a.u.). “CAGGACCCTTCTCTGTGACCAAGCCACGCAGCCTCAGTTTCGGAGTCACCTAGTGCAG” was tested, and the binding signal was 3480 fluorescence intensity (a.u.). With “ACCTCCTTGCCACCACTGCCTCGGTGCCAGCTGTGTCCTACGGAGTCACCTAGTGCAG” the binding signal was 3790 fluorescence intensity (a.u.). For “CACACCGTGCGCTGTGCTCCACTCCACCATCGCTCGCGACCGGAGTCACCTAGTGCAG”, the binding signal was 3400 fluorescence intensity (a.u.). With “AATTCAAATATGCTTCCACGTATTATTTAGCCACTCATTTCGGAGTCACCTAGTGCAG” the binding signal was 5200 fluorescence intensity (a.u.). “TCCTGAGACACTGACCTGTGGGCCCGACGTCAGCGGGGCCCGGAGTCACCTAGTGCAG” was tested, and the binding signal was 6730 fluorescence intensity (a.u.). “TGCGTGACGTGGGGATGAGATTGCGTTGTTGCTGCGCCCGCGGAGTCACCTAGTGCAG” was tested, and the binding signal was 6350 fluorescence intensity (a.u.). “GACTGATCCAGAGGAATTTCTGATTTCTCCGTCAAGTAAACGGAGTCACCTAGTGCAG” was tested, and the binding signal was 24800 fluorescence intensity (a.u.). For “GCAGATTGTAATATAATTTCCACGTCTTGATAGTTATGGTCGGAGTCACCTAGTGCAG”, the binding signal was 7030 fluorescence intensity (a.u.). “AGGTGGACACCGGCAGCGACGTGTCGTGGGTGCAGTGCAACGGAGTCACCTAGTGCAG” was tested, and the binding signal was 5360 fluorescence intensity (a.u.). For “TATGACATCGGCTCAAAGATAAATGATATGTCATCGGCATCGGAGTCACCTAGTGCAG”, the binding signal was 3540 fluorescence intensity (a.u.). “TGCGCGTCCTGCTCGCCGCTGCCCTCGCTGAGGAGCTCTCCGGAGTCACCTAGTGCAG” was tested, and the binding signal was 63600 fluorescence intensity (a.u.). With “TGCTAAGTCAGTAGATGGGATCCACGTGTCAGCGACTTTCCGGAGTCACCTAGTGCAG” the binding signal was 18200 fluorescence intensity (a.u.). For “TTAAACCTGCTCTAATTAATGAATCAAACTGTCACCAATGCGGAGTCACCTAGTGCAG”, the binding signal was 4340 fluorescence intensity (a.u.). For “AATCGTGCTCGATTGACCTCACTAATTCATCCCTGTAACCCGGAGTCACCTAGTGCAG”, the binding signal was 25700 fluorescence intensity (a.u.). In the case of “GTGGCCGGCAGTGCTGCCTAGGAATTCAGGGAAATGTCTCCGGAGTCACCTAGTGCAG”, the binding signal was 23600 fluorescence intensity (a.u.). For “CGCCTTGCCCACGCCTCGCCCGTCCGCCCGTCGCAGTCTGCGGAGTCACCTAGTGCAG”, the binding signal was 3250 fluorescence intensity (a.u.). For “CCGCGGAGAGGAAGGGGAGCCACGTGGTGAGGAACTCCCCCGGAGTCACCTAGTGCAG”, the binding signal was 8530 fluorescence intensity (a.u.).
